The values below come from paper doi:10.1101/2025.03.10.642062.

The target in this assay is T1, 4xmyc-ING2 (Arabidopsis INHIBITOR OF GROWTH 2) (Arabidopsis) (UniProt B3H615).
T1 sequence: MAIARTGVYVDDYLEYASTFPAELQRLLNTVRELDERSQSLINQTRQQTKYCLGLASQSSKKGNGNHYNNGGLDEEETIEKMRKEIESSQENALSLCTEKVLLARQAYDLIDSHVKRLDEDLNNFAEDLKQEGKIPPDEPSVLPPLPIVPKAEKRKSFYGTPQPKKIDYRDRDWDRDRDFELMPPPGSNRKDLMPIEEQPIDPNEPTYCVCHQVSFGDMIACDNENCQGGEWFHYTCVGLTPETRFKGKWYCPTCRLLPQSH
In words: affinity purification with mass spectrometry.

These are yes or no findings as the source states them, for the method shown. In cells and extracts the contact can be indirect. These calls come from enrichment with a bait or labelling near it, and not all partners need be listed. No binding means not detected with the bait. Sequences can lack the tags named with a protein.

Take “Histone Deacetylase Complex 1 (HDC1) (Arabidopsis (endogenous in seedlings))”: the binding result is recorded as “no binding”.

B1: SHORT LIFE (SHL) (protein, UniProt Q9FEN9 1-228)
chain: MPKQKAPRKQLKSYKLKHINKSIQEGDAVLMRSSEPGKPSYVARVEAIETDARGSHAKVRVRWYYRPEESIGGRRQFHGAKEVFLSDHFDFQSADTIEGKCKVHSFSSYTKLDSVGNDDFFCRFEYNSTTGAFDPDRVTVFCKCEMPYNPDDLMVQCEECSEWFHPSCIGTTIEEAKKPDNFYCEECSPQQQNLHNSNSTSNNRDAKVNGKRSLEVTKSKNKHTKRPG
In the case of B1, the binding entry was “no binding”.
